This test has as its target GST-AKT (UniProt P31749). Briefly: pull-down; GST pull-down: Re-ASPP2 or Re-Bcl-2 cultured with GST-AKT; immunoblot; both purified.

Amino acid sequences for entries named in this document (tags omitted). A change or cut given only in a name is not applied to a line headed by its entry.
UniProt P31749: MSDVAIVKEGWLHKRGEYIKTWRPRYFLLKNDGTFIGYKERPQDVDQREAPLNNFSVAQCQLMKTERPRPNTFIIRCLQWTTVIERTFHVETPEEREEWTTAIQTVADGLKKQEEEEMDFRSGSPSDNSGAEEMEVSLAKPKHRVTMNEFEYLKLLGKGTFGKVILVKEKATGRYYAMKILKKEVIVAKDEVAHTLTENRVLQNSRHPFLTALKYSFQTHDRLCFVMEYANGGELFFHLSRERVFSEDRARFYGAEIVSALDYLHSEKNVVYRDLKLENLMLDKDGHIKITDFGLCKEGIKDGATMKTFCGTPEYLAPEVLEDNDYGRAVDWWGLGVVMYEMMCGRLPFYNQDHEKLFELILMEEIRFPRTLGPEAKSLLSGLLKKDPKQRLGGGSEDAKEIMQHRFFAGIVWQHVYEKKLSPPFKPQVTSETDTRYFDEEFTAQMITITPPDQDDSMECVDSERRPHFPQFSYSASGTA
UniProt P10415: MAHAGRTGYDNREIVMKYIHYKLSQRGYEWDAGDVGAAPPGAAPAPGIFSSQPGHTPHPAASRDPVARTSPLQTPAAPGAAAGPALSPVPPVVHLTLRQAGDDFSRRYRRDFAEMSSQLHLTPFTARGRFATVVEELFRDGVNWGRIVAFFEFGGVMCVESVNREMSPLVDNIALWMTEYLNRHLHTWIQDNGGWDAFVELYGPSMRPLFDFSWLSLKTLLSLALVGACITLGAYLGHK

No constants are given. Whether binding was seen depends on the method and setting. Binding calls can cover weak binding; strength is not graded here.

These results are taken from article PMC4599285.

As to “Recombinant Bcl-2 (Re-Bcl-2) (from UniProt P10415)”, the binding entry was “binds”.
